From ChEMBL document CHEMBL3988442, “University of Dundee, Small-Polar-MMV Screening Library” (2021).

Amino acid sequences for entries named in this document (tags omitted).
UniProt P9WFT3, whole entry: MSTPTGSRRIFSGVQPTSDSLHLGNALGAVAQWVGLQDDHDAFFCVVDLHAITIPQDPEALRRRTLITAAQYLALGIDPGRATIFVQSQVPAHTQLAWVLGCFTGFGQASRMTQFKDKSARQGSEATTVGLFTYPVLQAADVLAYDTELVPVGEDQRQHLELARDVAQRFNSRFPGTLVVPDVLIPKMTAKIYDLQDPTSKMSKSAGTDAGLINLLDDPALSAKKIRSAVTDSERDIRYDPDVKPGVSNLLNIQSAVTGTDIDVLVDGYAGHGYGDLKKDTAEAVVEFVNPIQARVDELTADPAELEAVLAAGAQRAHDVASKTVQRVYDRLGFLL

The filed quantity is “Percent Effect” (%). The record does not define 0% and 100%; most values in the screen are far below 50% and negative numbers occur (in some assays of this library far below -100). This is an unselected part of the compounds tested.

Leishmania in macrophages: 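Cell assay of Leishmania donovani living inside macrophages; the read-out is not stated. Concentration: 30 µM. Direction is inferred from retests: higher values go with stronger inhibition. Size under these conditions: about 69,000 compounds, about 1,000 of them at 50% or above in at least one test.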
MtTrpRS: 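Enzyme assay of tryptophanyl-tRNA synthetase; the read-out is not stated. Target: Tryptophan-tRNA ligase, Mycobacterium tuberculosis (UniProt P9WFT3). Concentration: 10 µM. Higher most likely means stronger inhibition; the record gives no direction and few retests gave an IC50. Of about 65,000 compounds tested this way, about 64 (0.098%) reached 50% or more in at least one test.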
T. brucei: 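Whole-parasite assay of Trypanosoma brucei over 72 hours; the read-out is not stated. Concentration: 30 µM. Direction is inferred from retests: higher values go with stronger inhibition. Values scatter widely below zero; nearly all retest evidence comes from the higher of the two concentrations used. About 64,000 compounds were tested under these conditions; 1.5% (about 940) showed 50% or more at least once.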

SMILES: CCc1nnc(CN(C)c2cc(C)nc3c(C)c(C)nn23)o1
Leishmania in macrophages: -55.54
MtTrpRS: 11.97
T. brucei: -6.291

SMILES: CCC(OC)C(=O)NCc1cc2n(n1)CCCN(C1CCCCC1)C2 (centres unmarked)
Leishmania in macrophages: 1.469
MtTrpRS: -2.935
T. brucei: -16.31

SMILES: Cc1c(Cl)cccc1NCc1nc2n(n1)CCCCC2
Leishmania in macrophages: 55.49
MtTrpRS: -0.8136
T. brucei: -10.64

SMILES: Cc1noc(C2CCCN(C(=O)c3cc(Cl)ccc3F)C2)n1 (centres unmarked)
Leishmania in macrophages: 12.82
MtTrpRS: -2.685
T. brucei: -1.154

SMILES: O=C(O)C(F)(F)F.OCCN1CCC2(CCc3cc(-c4ccoc4)ccc32)CC1
Leishmania in macrophages: 9.148
T. brucei: 39.92

SMILES: CCOc1ccc(SCCNS(=O)(=O)CC)cc1
Leishmania in macrophages: -1.303
MtTrpRS: 1.548
T. brucei: -2.291

SMILES: COc1ccc2c(c1)CC(C1CCOCC1)N(C(=O)c1cnccn1)C2 (centres unmarked)
Leishmania in macrophages: 27.66
MtTrpRS: -2.865
T. brucei: -0.2201

SMILES: CC(C)CCC1=NC2(CCN(C(=O)CN3CCCC3=O)CC2)C(=O)N1
Leishmania in macrophages: 16
MtTrpRS: -0.5623
T. brucei: -14.19

SMILES: Fc1cccc(CN2CCC3(CCCN3c3ncccn3)CC2)c1.O=C(O)C(F)(F)F
Leishmania in macrophages: 20.53
T. brucei: -16.3

SMILES: CCCc1nnc(NC2CCN(C3CCCC3)CC2)o1
Leishmania in macrophages: 16.07
MtTrpRS: 1.032
T. brucei: -26.79

SMILES: O=C(CCc1nc(-c2ccsc2)no1)NCC1CCN(C2CC2)C1 (centres unmarked)
Leishmania in macrophages: 15.45
MtTrpRS: 12.99
T. brucei: -20.47

SMILES: Cc1sc(CN)nc1-c1ccc(Cl)cc1
MtTrpRS: -4.706

SMILES: COC(=O)N1CCCCC1C(=O)N1CCN(c2ncccc2C)CC1 (centres unmarked)
Leishmania in macrophages: 3.455
MtTrpRS: -0.2463
T. brucei: -10.96

SMILES: O=C1CN(C(=O)C2CCCCC2)CC(O)CN1Cc1ccco1 (centres unmarked)
Leishmania in macrophages: -1.544
T. brucei: -34.42

SMILES: COc1nn(C)cc1C(=O)N1CCC(c2nnc(C(C)C)o2)CC1
Leishmania in macrophages: 17.53
MtTrpRS: 8.312
T. brucei: 7.237

SMILES: CC(C)(NC(=O)NCc1cccc(Br)c1)C(=O)O
Leishmania in macrophages: -14.02
MtTrpRS: 4.479
T. brucei: -38.98

SMILES: CC(=O)N1CCOC[C@H](Oc2ccc(C(F)(F)F)cc2)C1
Leishmania in macrophages: 7.335
MtTrpRS: -3.414
T. brucei: -7.673

SMILES: Cc1nc(C2CCCN(C(=O)Cn3ccccc3=O)C2)sc1C (centres unmarked)
Leishmania in macrophages: -13.34
MtTrpRS: -10.21
T. brucei: -7.941

SMILES: O=C(CCNS(=O)(=O)c1ccccc1)N1CCOC(c2ccccc2)C1 (centres unmarked)
Leishmania in macrophages: 16.78
MtTrpRS: 1.687
T. brucei: 5.61

SMILES: CSCC(C)N(C)S(=O)(=O)c1ccc(Cl)cc1C#N (centres unmarked)
Leishmania in macrophages: 21.02
MtTrpRS: 3.179
T. brucei: -19

SMILES: Cc1cc(C)cc(CN2CCN(C(=O)C3CCC3)[C@@H]3CS(=O)(=O)C[C@@H]32)c1
MtTrpRS: 3.293

SMILES: CCCS(=O)(=O)N1CCC2(CN(c3ccccc3)C(=O)CN2C)C1.O=C(O)C(F)(F)F (centres unmarked)
Leishmania in macrophages: 12.2
T. brucei: -35.4

3 of the entries, repeated:

| SMILES | Leishmania in macrophages | MtTrpRS | T. brucei |
|---|---|---|---|
| `Cc1c(Cl)cccc1NCc1nc2n(n1)CCCCC2` | 55.49 | -0.8136 | -10.64 |
| `Cc1noc(C2CCCN(C(=O)c3cc(Cl)ccc3F)C2)n1` (centres unmarked) | 12.82 | -2.685 | -1.154 |
| `COC(=O)N1CCCCC1C(=O)N1CCN(c2ncccc2C)CC1` (centres unmarked) | 3.455 | -0.2463 | -10.96 |